Experimental data reported in PubChem BioAssay AID1487 (National Center for Advancing Translational Sciences (NCATS), 2009).
The other results are listed elsewhere or left out. The main result of the screen is listed elsewhere. These columns were measured beside it and carry no call. Compounds called inactive in the main read-out are mostly missing here. Words in brackets tell the shape of the fitted curve; partial curves, single points and poor fits give uncertain potencies.

Assay: qHTS Assay for Modulators of Lamin A Splicing
Settings: HeLa LMNA splicing GFP/RFP minigene ratio, 48 h
Method in brief: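 S3 HeLa stable clones carrying a lamin A-EGFP splicing minigene plus DsRed2 were seeded at 600 cells/well in Opti-MEM with 2% FBS, pin-dosed and incubated 48 h at 37°C. Acumen cytometry (488 nm) gave the GFP/RFP total-intensity ratio.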

[1] = measured here: GFP splicing reporter channel
[2] = measured here: RFP viability control channel

Compound | AC50 [1] | AC50 [2]
CC(C)N(C(=O)COC(=O)c1cccc(C(=O)OCC(=O)N(C(C)C)C(C)C)n1)C(C)C | 11.2 µM [falling, partial curve, poor fit] | –
Cc1cccc(Nc2nc(-c3ccccc3)c(C(=O)Nc3cccnc3)s2)c1 | 35.5 µM [falling, single point] | 35.5 µM [falling, single point]
CCn1nc(C)c(NC(=O)c2cnn3c(C(F)F)cc(-c4ccccc4)nc23)c1C | 1.26 µM [rising, partial curve] | –
O=c1c2ccccc2nnn1Cc1cccc2ccccc12 | 0.0141 µM [rising, full curve, poor fit] | –
O=C(Nc1nc(-c2cc(Cl)sc2Cl)cs1)c1ccccc1 | – | 25.1 µM [rising, single point]
CCCCCCOC(=O)C[N+](C)(C)CCOC1CC2CCC1(C)C2(C)C (centres undefined) | – | 12.6 µM [rising, partial curve, poor fit]
Nc1ccc(NC(=O)c2cccs2)cc1 | – | 0.02 µM [falling, full curve, poor fit]
Cc1cc(C(=O)OC(C(=O)Nc2ccc(C)c(Cl)c2)c2ccccc2)c(C)o1 (centres undefined) | – | 35.5 µM [rising, single point]
COc1ccc(NC(=O)c2cccc(Oc3ccc([N+](=O)[O-])cc3Cl)c2)cc1 | – | 20 µM [rising, single point]
CCS(=O)(=O)Nc1ccc(-c2ccc(NS(=O)(=O)CC)c(OC)c2)cc1OC | – | 10 µM [rising, partial curve]
Cc1cc([N+](=O)[O-])nn1CC(=O)Nc1ccc(Cl)cn1 | 5.62 µM [rising, partial curve, poor fit] | 0.316 µM [rising, full curve]
O=C(COc1ccc(Cl)cc1Cl)Nc1ccc(S(=O)(=O)NC2=NCCCCC2)cc1 | – | 35.5 µM [rising, single point]
COc1ccc(COc2cc(-c3cccc(OC)c3)nc3ccc(NC(=O)c4cccnc4)cc23)cc1 | – | 15.8 µM [rising, single point]
N#Cc1c(NC(=O)c2ccncc2)sc2c1CCC2 | – | 0.0708 µM [rising, partial curve]
Cc1ccc(C)c(N2CCN(c3ncnc4c3nc3n4CCCCC3)CC2)c1 | 35.5 µM [falling, single point] | 35.5 µM [falling, single point]
C=CCO/N=C(\C)c1c(O)c(C)c(-c2ccccc2)n(-c2ccccc2)c1=O | – | 14.1 µM [rising, partial curve, poor fit]

2 entries picked at random from those above, as already listed:
Compound | AC50 [1] | AC50 [2]
Cc1cc([N+](=O)[O-])nn1CC(=O)Nc1ccc(Cl)cn1 | 5.62 µM [rising, partial curve, poor fit] | 0.316 µM [rising, full curve]
O=C(Nc1nc(-c2cc(Cl)sc2Cl)cs1)c1ccccc1 | – | 25.1 µM [rising, single point]
